Reference: PMC9569790, “From Solution Studies of Pharmaceuticals (Aspirin and Related Compounds) to the Thermodynamics of Aspirin-β-Cyclodextrin Interaction in water and N,N-Dimethylformamide” (International Journal of Molecular Sciences, 2022)

Columns and labels:
[1] = design: method as in PMID 16509753; conditions: water, 298 K, cited from earlier work
[2] = Interaction of acetylsalicylic acid with β-cyclodextrin in water (titration calorimetry); type: binding; conditions: 298 K
[3] = Interaction of acetylsalicylic acid with β-cyclodextrin in DMF (titration calorimetry); type: binding; conditions: nonionized guest, 298 K

CC(=O)Oc1ccccc1C(=O)O [acetylsalicylic acid, reference compound]
ΔassG^0 ([1]; pH 1.75, nonionized guest, calculated from Kass of ref 15): −15.64 ^a kJ mol^−1
ΔcG^0 ([1]; pH 6.00, ionized guest, calculated from Ks of ref 15): −9.76 ^a kJ mol^−1
ΔassH^0 ([2]; pH 1.75, nonionized guest): 0 ^b kJ mol^−1
ΔassS^0 ([2]; pH 1.75, nonionized guest): 52 ^b JK^−1 mol^−1
ΔcH^0 ([2]; pH 6.00, ionized guest): 0^b kJ mol^−1
ΔcS^0 ([2]; pH 6.00, ionized guest): 33 ^b JK^−1 mol^−1
ΔassG^0 [3]: −26.6 ^b kJ mol^−1
ΔassH^0 [3]: 0.15 ± 0.03 ^b kJ mol^−1
ΔassS^0 [3]: 89 ^b JK^−1 mol^−1

Read-outs that look alike come from different tables or passages of the source. Marks after values point to notes of the source that are not given here.
